Reference: patent US20160002355A1
No constants are given. Whether binding was seen depends on the method and setting. Some entries that bind do so weakly or less than the wild type.

What was measured:
[1] = biological target: anti-Complex I antibody (anti-HCMV antibody); assay: anti-CI clinical PK ELISA: anti-ID coated on the plate captures anti-CI from spiked human serum, detection with HRP-mouse anti-huIgG Fc gamma; readout % recovery
[2] = biological target: anti-Complex I antibody (anti-HCMV antibody); assay: preliminary HCMV PK ELISA, anti-ID as plate coat, polyclonal anti-human detection
[3] = biological target: anti-Complex I antibody (anti-HCMV antibody); assay: sandwich ELISA: anti-ID coated at 1 ug/mL, anti-HCMV antibody in assay diluent/1% normal human serum, detection with HRP-sheep anti-huIgG; readout S/N ratio

| Binder | binding [1] | binding [2] | binding [3] |
| --- | --- | --- | --- |
| murine mAb 4.25B10.15 (antibody, IgG1, V domains shown) VH: QVQLQQSGAELVRPGTSVKVSCKASGYAFTNYLIEWVKQRPGQGLEWIGVINPGSGGTNYNEKFEAKATLTADKSSSTAYMQLSSLTSDDSAVYFCARHGSSYWYFDVWGAGTTVTVSS VL: DIVMTQSPATLSVTPGDRVSLSCRASQSISDYLHWYQQKSHESPRLLIKYASQSISGIPSRFSGSGSGSDFTLSINSVEPEDVGVYYCQNGHSFPYTFGGGTKLEIK | binds | binds | – |
| murine mAb 1.9E1.1 (antibody, IgG1, V domains shown) VH: QVQLQQSGAELVMPGASVKMSCKASGYTFTDYWMYWVNQRPGQGLEWIGAIDTSDSYTTYNQNFKGKATLTVDESSSTAYMQLNSLTSEDSAVYYCARSGFPLFYYPMDYWGQGTSVTVSS VL: QAVVTQESALTTSPGETVTLTCRSSTGAVTTSNYANWVQEKPDHLFTGLIGGTVNRAPGVPARFSGSLIGDKAALTITGAQTEDEAVYFCALWYSNHLVFGGGTKLTVL | – | – | no binding (tested: 50 ng/ml in well) |
